Results as given in PubChem BioAssay AID651640 (Broad Institute, 2012).
Hit rate of the full screen: of about 350,000 compounds, about 6,000 (1.7%) were called active. This list was built around the results that the source calls inconclusive (neither active nor inactive); the mix of calls is not that of the screen. No stated cut-off is given here; in the data, active means CPE inhibition above about 20% (passing the limit was not always enough); inconclusive means no clear call, values can overlap the other calls; tested in BHK-21 cells. The source holds several records for some structures; these can differ, active in one and inactive in another.

Assay: protection of cells from dengue 2 killing – plate reader, single concentration, primary screen (AID 651640);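 further: 0% = median of neutral control wells and 100% = median of positive control wells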
Conditions: DENV2-infected cells, cytopathic effect rescue, at 9.99 µM, hits give high values

SMILES	CPE inhibition
CSc1cccc(NC(=S)NCCCO)c1	inconclusive: 24.4%
COC(=O)c1cccc(C(=O)N2CCC(CCC(=O)NCc3ccc(F)cc3)CC2)c1	inconclusive: 22.2%
C[C@H]1CCCCO[C@H](CN(C)Cc2ccccc2)[C@@H](C)CN([C@@H](C)CO)C(=O)c2cc(NC(=O)Nc3ccc(C(F)(F)F)cc3)ccc2O1	active: 39.4%
CCOC(=O)N(C)C[C@H]1OCc2cn(nn2)CCCC(=O)N([C@H](C)CO)C[C@@H]1C	inconclusive: 34.4%
COc1ccc(-c2nc3ccc(C)cn3c2Cc2cccc(F)c2)cc1OC	active: 33%
C[C@@H]1CN([C@H](C)CO)C(=O)c2cc(NC(=O)Nc3ccc(C(F)(F)F)cc3)ccc2O[C@@H](C)CCCCO[C@H]1CN(C)S(=O)(=O)c1cn(C)cn1	inconclusive: 54.3%
CCC(CO)Oc1cc(NCc2cccc(F)c2)c2ncn(C(C)C)c2c1 (centres undefined)	active: 118%
Cc1noc(C)c1NC(=O)Nc1cccc2c1O[C@@H](CN(C)Cc1ccc(C(=O)O)cc1)[C@@H](C)CN([C@@H](C)CO)C2=O	active: 44.5%
CN1C(=O)c2cc(NC(=O)Nc3ccccc3F)ccc2OC[C@H]2O[C@@H](CC(=O)NCc3ccc(-c4ccccc4)cc3)CC[C@H]21	active: 48.3%
C[C@H]1CN([C@@H](C)CO)C(=O)Cc2cc(NS(=O)(=O)c3cccs3)ccc2O[C@@H]1CN(C)C(=O)NC1CCCCC1	inconclusive: 24.6%
Cc1c(Cc2ccccc2)c(=O)oc2cc(OCC(=O)N[C@@H](Cc3ccccc3)C(=O)O)ccc12	inconclusive: 36%
COCC(=O)N(C)C[C@@H]1Oc2ncc(-c3ccc(C)cc3)cc2C(=O)N([C@H](C)CO)C[C@@H]1C	inactive: 3.17%
O=C(OCC(=O)c1c[nH]c2ccccc12)c1cccc(S(=O)(=O)N2CCCCCC2)c1	inconclusive: 21.1%
CCNC(=O)C[C@@H]1CC[C@@H]2[C@H](COC[C@@H](O)CN2C(=O)Nc2cccc(OC)c2)O1	inactive: 6.03%
CC(=O)Nc1ccc2c(c1)C(=O)N(C)[C@@H]1CC[C@@H](CC(=O)NCc3ccc(Cl)cc3)O[C@H]1CO2	inactive: -1.02%
O=C(COC(=O)c1ccc(Cl)c(S(=O)(=O)N2CCOCC2)c1)NCc1ccco1	inconclusive: 30.7%
O=C(Nc1ccc(Cl)cc1)Nc1ccc(-c2cnco2)cc1	inconclusive: 32%
CCN(CC(=O)NCc1cccs1)C(=O)Cc1ccc(Cl)c(Cl)c1	inconclusive: 22.6%
CC=Cc1ccc2n(c1=O)C[C@@H]1[C@@H](CO)[C@H](C(=O)NCC(F)(F)F)N(CCC)[C@H]21 (mixture of isomers)	inconclusive: 41.3%
COc1ccc(CN2[C@H](CO)[C@H]3c4ccccc4N(C(=O)Nc4ccc(F)cc4)C[C@H]32)cc1	active: 21.9%
CC(C)OC(=O)c1cc(Cl)c(=O)n(Cc2ccc(Cl)cc2Cl)c1	inactive: 4.66%
COCCCNC(=O)CN1CCN(Cc2ccccc2Cl)C1=O	inconclusive: 53.7%
COc1ccc(C(=O)COC(=O)CNC(=O)c2ccc(Cl)cc2Cl)c(OC)c1	inconclusive: 44.2%

SMILES	CPE inhibition
Cc1noc(C)c1NC(=O)N(C)C[C@H]1Oc2c(NC(=O)Nc3ccc4c(c3)OCO4)cccc2C(=O)N([C@H](C)CO)C[C@H]1C	active: 23.8%
C[C@]12C(=O)N(c3ccc(F)cc3)C(=O)N1[C@@H]1c3ccccc3OC[C@@H]1[C@H]2c1ccccc1	inactive: -14.8%
O=C(CCCc1ccccc1)Nc1ccc2c(c1)OCCO2	inconclusive: 47.4%
CN(C)CC(=O)N1[C@H](CO)[C@@H](c2ccccc2-c2ccccc2F)[C@@H]1C#N	inconclusive: 43%
COc1ccc(-n2c(C)cc(=O)[nH]c2=O)cc1	inconclusive: 40.1%
Cc1ccc(NC(=O)CSCC(=O)N(C)CC(=O)Nc2cccc(F)c2)cc1	inconclusive: 50.4%
Cc1cc(C(=O)Nc2cccc3c2O[C@H](CN(C)S(C)(=O)=O)[C@@H](C)CN([C@H](C)CO)C3=O)n(C)n1	inactive: 13.8%
O=C(CS(=O)(=O)c1ccccc1)NC1CCCCC1	inactive: -3.1%
CC(C)=CCc1c2c(c3occ(-c4ccc(O)cc4)c(=O)c3c1O)C=CC(C)(C)O2	inconclusive: 23.1%
C[C@H]1CCCCO[C@@H](CN(C)C(=O)Nc2ccc(C(F)(F)F)cc2)[C@@H](C)CN([C@@H](C)CO)C(=O)c2cc(NS(=O)(=O)c3ccc(F)cc3)ccc2O1	active: 76.2%
C[C@H]1CCCCO[C@@H](CN(C)C(=O)c2ccncc2)[C@@H](C)CN([C@@H](C)CO)C(=O)c2cc(NC(=O)NC3CCCCC3)ccc2O1	active: 21.2%
COC(=O)[C@@]12C[C@@H](CC(=O)NCC3CCCCC3)C(=O)N(Cc3cccc4ccccc34)C1=CCC(C)(C)C2	inconclusive: 33%
Cc1ccc(NC(=S)N2CCC(c3nc4ccccc4s3)CC2)cc1	inactive: -7.74%
COCCNc1ncnc2c1ncn2[C@H]1CN(Cc2ccc(F)cc2)C[C@@H](CO)O1	active: 40.3%
OC[C@@H]1[C@H](c2ccc(C3=CCCC3)cc2)[C@H]2CN(Cc3ccncc3)CCCCN12	active: 41%
CCc1c(C(=O)Nc2cc(C(=O)OC)ccc2C)csc1C	active: 87.7%
CCS(=O)(=O)N1CC(=O)N2[C@H](C1)[C@@H](c1ccc(C#CCC3CCCC3)cc1)[C@@H]2CO	inactive: 0.254%
COc1cc(C(=S)N2CCCCC2)ccc1OCC(=O)Nc1ccc(F)cc1	active: 98.1%
CN(C)C(=O)c1cccc(-c2cccc(-c3nc(C(=O)NCc4ccccc4)cc4c3[C@@H](CCO)N([S@](=O)C(C)(C)C)C4)c2)c1	inactive: -1.33%
C[C@@H]1CCCCO[C@@H](CN(C)CC2CC2)[C@H](C)CN([C@H](C)CO)C(=O)c2cc(NC(=O)Nc3ccc4c(c3)OCO4)ccc2O1	inconclusive: 23%
O=C(C1CCC1)N1CC2(C1)[C@H](c1ccccc1)[C@@H](CO)N2Cc1cncnc1	inconclusive: 20.1%
C[C@@H]1CCCCO[C@@H](CN(C)S(=O)(=O)c2cccs2)[C@H](C)CN([C@H](C)CO)C(=O)c2cc(NC(=O)NC3CCCCC3)ccc2O1	inconclusive: 29.2%
CC(NCC(O)COc1ccc2ccccc2c1)c1ccccc1 (centres undefined)	inactive: 9.05%

SMILES	CPE inhibition
COc1ccc(CN(C)C[C@@H]2OCCCC[C@H](C)Oc3ccc(NS(=O)(=O)c4ccccc4)cc3C(=O)N([C@@H](C)CO)C[C@@H]2C)cc1	inconclusive: 21.5%
O=c1oc(CCO)cc2ccc(-c3ccc4[nH]ccc4c3)cc12	inconclusive: 42.1%
O=C(C[C@H]1C[C@@H]2c3cc(NC(=O)CC4CC4)ccc3O[C@@H]2[C@@H](CO)O1)NCc1ccccc1F	inactive: 6.84%
COc1ccc(Cl)cc1NC(=O)CN(C)C(=O)Cn1[nH]c(=O)c2ccccc2c1=O	inconclusive: 57.1%
Cc1ccc(S(=O)(=O)Nc2ccc3c(c2)CC(=O)N([C@@H](C)CO)C[C@@H](C)[C@H](CN(C)Cc2ccc4c(c2)OCO4)O3)cc1	inactive: -2.26%
CN1CCN(C(=O)c2ccc(CSc3nc4ccncc4n3Cc3ccc(F)cc3)cc2)CC1	inconclusive: 22.5%
COCCCN(C(=O)Cc1ccc(S(=O)(=O)N2CCOCC2)s1)c1c(N)n(Cc2ccccc2)c(=O)[nH]c1=O	inconclusive: 51.2%
C[C@@H]1CN([C@@H](C)CO)C(=O)c2cc(NS(C)(=O)=O)ccc2O[C@@H](C)CCCCO[C@H]1CN(C)S(=O)(=O)c1ccc(F)cc1	active: 67.2%
COc1ccc(NC(=O)N(C)C[C@@H]2OCCCC[C@@H](C)Oc3ccc(NC(=O)Nc4ccccc4)cc3C(=O)N([C@H](C)CO)C[C@@H]2C)cc1	active: 38.6%
CCN1C(=O)c2cccc3cccc1c23	inactive: 3.76%
C[C@H](CO)N1C[C@H](C)[C@H](CN(C)S(=O)(=O)c2ccc(F)cc2)Oc2c(NC(=O)c3ccc(-c4nccs4)cc3)cccc2C1=O	inactive: -3.03%
CC1(C(=O)NS(=O)(=O)c2ccc(Cl)cc2)CCN1C(=O)Cc1cccs1 (centres undefined)	inconclusive: 26.7%
Cc1nnc2ccc(N3CCCCC3)nn12	inactive: 17.2%
CCCN1[C@@H]2Cn3c(ccc(-c4ccccc4OC)c3=O)[C@H]1[C@@H](C(=O)NCc1ccccn1)[C@@H]2CO	inactive: 17.7%
C/C=C/c1cnc2c(c1)C(=O)N([C@@H](C)CO)C[C@@H](C)[C@@H](CN(C)C(=O)NC1CCCCC1)O2	inactive: -5.64%
O=C(/C=C/c1ccc(Cl)c([N+](=O)[O-])c1)Nc1cccc(NC(=O)c2ccco2)c1	inactive: 0.655%
C[C@H](CO)N1C[C@H](C)[C@@H](CN(C)C(=O)Nc2ccc3c(c2)OCO3)Oc2c(NS(=O)(=O)c3ccccc3)cccc2C1=O	active: 28.3%
C/C(=N/NC(=O)CNC(=O)CCc1ccccc1)c1ccc(Cl)c(Cl)c1	inactive: 1.69%
CCCCCC(=O)N1C[C@H](O)[C@@H](n2cc(C3CC3)nn2)C[C@@H]1c1ccc(C)cc1	inconclusive: 45.4%
O=C(c1ccccc1F)N1C[C@@H]2[C@H](c3ccccc31)[C@@H](CO)N2C(=O)c1ccncc1	inactive: 7.38%
O=C(O)c1cc(-c2cccs2)nn1-c1cccc(Cl)c1	inactive: -8.78%
CN(Cc1nc(-c2cnccn2)no1)C1CC(C)(C)NC(C)(C)C1	inactive: 1.15%
CSc1ccc2c(c1)C(N1CCN(C)CC1)Cc1ccc(F)cc1S2 (centres undefined)	inconclusive: 21.2%

Given in markdown: entries from further up

| SMILES | CPE inhibition |
| --- | --- |
| O=C(C[C@H]1C[C@@H]2c3cc(NC(=O)CC4CC4)ccc3O[C@@H]2[C@@H](CO)O1)NCc1ccccc1F | inactive: 6.84% |
| Cc1nnc2ccc(N3CCCCC3)nn12 | inactive: 17.2% |
| CCCCCC(=O)N1C[C@H](O)[C@@H](n2cc(C3CC3)nn2)C[C@@H]1c1ccc(C)cc1 | inconclusive: 45.4% |
| O=C(O)c1cc(-c2cccs2)nn1-c1cccc(Cl)c1 | inactive: -8.78% |
